# Library screen at single concentrations

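Growth of Mycobacterium tuberculosis over 4 days (cholesterol / DPPC medium with tyloxapol); the read-out is not stated. Compounds at 50 µM. Direction is inferred from retests: higher values go with more growth inhibition. Of about 69,000 compounds tested this way, about 370 (0.54%) reached 50% or more in at least one test.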

Each number is a percent effect as filed.
How 0% and 100% were set is not recorded. Most values in the screen are low, and negative values occur.
This is an unselected part of the compounds tested.
Two or more numbers in one place are separate tests of the same structure; such repeats can differ widely.

With Cn1nc(C2CCN(CC(=O)NC3CC3)CC2)n(-c2ccccc2)c1=O the screen gave 12.06%. CN(Cc1ccsc1)C(=O)COC(=O)c1cc(Cl)c[nH]1 gave 14.27%. For Cc1cc(C)nc(N2CCC(C(=O)Nc3n[nH]c(C(C)C)n3)CC2)n1 the result was 11.46%. Result for CCCN1CCC(c2cc(CCOc3ccc(C(F)(F)F)cc3)[nH]n2)C1 (stereo unspecified) was 21.96% and 18.92%.

With O=C(CN1CCCC(c2ccn[nH]2)C1)Nc1nncs1 (stereo unspecified) the screen gave -10.86%. O=C(O)C(F)(F)F.[H][C@@]12CN(S(C)(=O)=O)C[C@H](C(=O)Nc3cccnc3)[C@]1([H])CCO2 gave -5.811%. CNC(=O)COc1c(C(C)=O)ccc(Cl)c1Cl read -11.61%. Result for Cc1c[nH]c(CN2CCCn3nc(CNS(C)(=O)=O)cc3C2)n1 was -19.17%.

CN(CCCc1cc(-c2ccccc2)n[nH]1)C(=O)CCCn1cncn1 gave 13.39%. Result for [H][C@@]12CS(=O)(=O)C[C@]1([H])N(C(=O)Nc1ccccc1Cl)CCN2CCC was -15.66%. For O=c1cc(N2CCCCC2)cnn1C[C@H](O)CO the result was -1.117% and -12.54%. With CCNc1cc2c(nn1)CCN(C(=O)C1Cc3ccccc3S1)C2 (stereo unspecified) the screen gave 4.49%.

For COc1ccc(Cl)cc1C(=O)NCCNc1cnccn1 the result was 1.564%. With O=C(O)[C@@H]1CN(C(=O)CSCC2CC2)C[C@H]1c1ccccn1 the screen gave -16.19% and -9.267%. Result for O[C@H]1[C@H](n2cc(-c3ccccc3)nn2)c2ccccc2C12CCNCC2 was -13.35%. O=C(O)C(F)(F)F.[H][C@@]12OCCC[C@]1([H])N(S(=O)(=O)CCC)C[C@@H]2N(C)Cc1ccco1 read 4.631% and 6.643%.

CCN1CCN(C2CCN(C(C(N)=O)c3ccccc3)CC2)C1=O (stereo unspecified) read -8.143%. For CC(=O)N1CCCC1c1nc(CN(C)C(=O)C(C)C)cc(N(C)C)n1 (stereo unspecified) the result was 6.332% and -1.347%. CC(C)N1CCCC2(CCN(Cc3noc(C4CCCC4)n3)C2)C1=O (stereo unspecified) gave -24.68% and 6.678%. Cn1nc(COCC2CC2)c2c1CN(C(=O)c1ccno1)CC2.O=C(O)C(F)(F)F read 14.93%.

COCCCN(Cc1ccncc1)c1cc(C)ncn1 gave -12.4%. CN(C)C(=O)CC1CC2(CCN(C(=O)N(C)C)CC2)Oc2ccccc21 (stereo unspecified) gave -9.926%. For Cc1ccc(C)c(OCCNC(=O)C2CCOC2)c1 (stereo unspecified) the result was -12.57%. CCOc1ncccc1NC(=O)N1CCN(Cc2ccncc2)CC1 gave -1.851%.

CC1(C)CCC(CC(=O)O)c2ccccc21 (stereo unspecified) read -1.827%. With O=C(Cc1ccccn1)N1CCN(C(=O)c2cccc3[nH]ncc23)CC1 the screen gave -0.8468%. CC(C)(C)CCN1CCN(Cn2nccc2-c2cccnc2)CC1 read -20.38%. Result for [H][C@]12CO[C@@H](CNS(C)(=O)=O)[C@@]1([H])CCN(C(=O)c1cccn1C)C2 was -26.65%.

With CCc1nc(C2CCCN(C(=O)c3cccc(Cl)c3)C2)no1 (stereo unspecified) the screen gave -9.049%. For COC[C@]1(O)CCN(Cc2c[nH]c(CC3CCCC3)n2)CC1(C)C the result was -14.21%. With COCCn1c(C(=O)NCc2n[nH]c(C)n2)cc2ccccc21 the screen gave -9.654%. For CC(NC(=O)NCCCn1cccn1)c1ccc2c(c1)OCCCO2 (stereo unspecified) the result was -4.439%.

Some entries from above, unchanged:

| Compound | effect |
|---|---|
| `CCNc1cc2c(nn1)CCN(C(=O)C1Cc3ccccc3S1)C2` (stereo unspecified) | 4.49 |
| `[H][C@@]12CS(=O)(=O)C[C@]1([H])N(C(=O)Nc1ccccc1Cl)CCN2CCC` | -15.66 |

From ChEMBL document CHEMBL3988442, “University of Dundee, Small-Polar-MMV Screening Library” (2021).